The results in this text go back to article PMC3522669.

Amino acid sequences for entries named in this document (tags omitted). Residues count along the entry.
UniProt Q86925, residues 110-267: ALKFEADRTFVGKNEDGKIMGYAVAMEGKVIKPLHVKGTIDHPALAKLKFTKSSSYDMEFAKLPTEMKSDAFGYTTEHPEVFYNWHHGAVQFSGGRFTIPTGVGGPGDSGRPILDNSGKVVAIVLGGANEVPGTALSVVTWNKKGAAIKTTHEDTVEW

These are yes or no findings as the source states them, for the method shown.

For this test, the target named is Aura virus capsid protease (C-terminal protease domain of the capsid protein, residues 110-267) (Aura virus) (UniProt Q86925). Briefly: crystal structure; AVCP apo and dioxane-soaked crystals, space group C2, one molecule per asymmetric unit; crystals grown in 28% w/v PEG monomethyl ether 2000, 100 mM Bis-Tris pH 6.5, 20°C; both purified.

As for “Aura virus capsid protease (C-terminal protease domain of the capsid protein, residues 110-267) (from UniProt Q86925 110-267) (domain or fragment)”, the binding entry was “no binding”.
